# From PMC10617580
# Target: UL8-V5-TbID (pcDNA3.1-UL8-V5-TbID) (human cytomegalovirus, strain TB40/E)
# Experiment: proximity labelling; BioID-MS with TurboID: HEK293 transfected with UL8-V5-TbID (control UL8-V5) for 48 hours, 50 µM biotin for 6 hours, streptavidin magnetic beads, mass spectrometry, SAINT filtering
binder,measurement,value
"phospholipase C beta 3 (PLCB3), endogenous in HEK293 (protein, UniProt Q01970 1-1234) MAGAQPGVHALQLEPPTVVETLRRGSKFIKWDEETSSRNLVTLRVDPNGFFLYWTGPNMEVDTLDISSIRDTRTGRYARLPKDPKIREVLGFGGPDARLEEKLMTVVSGPDPVNTVFLNFMAVQDDTAKVWSEELFKLAMNILAQNASRNTFLRKAYTKLKLQVNQDGRIPVKNILKMFSADKKRVETALESCGLKFNRSESIRPDEFSLEIFERFLNKLCLRPDIDKILLEIGAKGKPYLTLEQLMDFINQKQRDPRLNEVLYPPLRPSQARLLIEKYEPNQQFLERDQMSMEGFSRYLGGEENGILPLEALDLSTDMTQPLSAYFINSSHNTYLTAGQLAGTSSVEMYRQALLWGCRCVELDVWKGRPPEEEPFITHGFTMTTEVPLRDVLEAIAETAFKTSPYPVILSFENHVDSAKQQAKMAEYCRSIFGDALLIEPLDKYPLAPGVPLPSPQDLMGRILVKNKKRHRPSAGGPDSAGRKRPLEQSNSALSESSAATEPSSPQLGSPSSDSCPGLSNGEEVGLEKPSLEPQKSLGDEGLNRGPYVLGPADREDEEEDEEEEEQTDPKKPTTDEGTASSEVNATEEMSTLVNYIEPVKFKSFEAARKRNKCFEMSSFVETKAMEQLTKSPMEFVEYNKQQLSRIYPKGTRVDSSNYMPQLFWNVGCQLVALNFQTLDVAMQLNAGVFEYNGRSGYLLKPEFMRRPDKSFDPFTEVIVDGIVANALRVKVISGQFLSDRKVGIYVEVDMFGLPVDTRRKYRTRTSQGNSFNPVWDEEPFDFPKVVLPTLASLRIAAFEEGGKFVGHRILPVSAIRSGYHYVCLRNEANQPLCLPALLIYTEASDYIPDDHQDYAEALINPIKHVSLMDQRARQLAALIGESEAQAGQETCQDTQSQQLGSQPSSNPTPSPLDASPRRPPGPTTSPASTSLSSPGQRDDLIASILSEVAPTPLDELRGHKALVKLRSRQERDLRELRKKHQRKAVTLTRRLLDGLAQAQAEGRCRLRPGALGGAADVEDTKEGEDEAKRYQEFQNRQVQSLLELREAQVDAEAQRRLEHLRQALQRLREVVLDANTTQFKRLKEMNEREKKELQKILDRKRHNSISEAKMRDKHKKEAELTEINRRHITESVNSIRRLEEAQKQRHDRLVAGQQQVLQQLAEEEPKLLAQLAQECQEQRARLPQEIRRSLLGEMPEGLGDGPLVACASNGHAPGSSGHLSGADSESQEENTQL",binding,binds

# Results are given in words; binding and its absence hold for the method and conditions named. In cells and extracts the contact can be indirect. A yes stands for co-enrichment or nearness to the bait. Other partners may have been found.
